Laboratory results taken from PubChem BioAssay AID2685 (National Center for Advancing Translational Sciences (NCATS), 2010).
Some of the results follow. Further columns of the screen follow, without active or inactive calls. Compounds called inactive in the main read-out are mostly missing here. Words in brackets tell the shape of the fitted curve; partial curves, single points and poor fits give uncertain potencies.

Assay: qHTS Assay for Lipid Storage Modulators in Drosophila S3 Cells;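 for cell number change: cells counted by Cell Tracker Red CMTPX staining in the red channel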
Details: BODIPY lipid droplet fluorescence, 18-24 h; for cell number change: measured here: cell count max response, cells fed with added oleic acid
Procedure, shortened: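 Laser-scanning cytometry quantifies lipid droplet accumulation (500–530 nm total intensity; droplet/cell object ratio) in oleic acid-fed (400 uM added) Drosophila S3 cells treated with a concentration series. 20 uM Triacsin C defined 100% inhibition.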

[1] = measured here: cell number channel AC50, cells fed with added oleic acid
[2] = measured here: lipid fluorescence (Fed channel) AC50, cells fed with added oleic acid

| Structure (SMILES) | cell number change [%] | AC50 [1] | AC50 [2] |
| --- | --- | --- | --- |
| N#CC(C#N)=C(N)CSc1cccc[n+]1[O-] | -27.8 | 4.61 nM [rising, full curve, poor fit] |  |
| O=C(NCCCN=C1NS(=O)(=O)c2ccccc21)c1ccccc1Cl | -25 |  |  |
| CC(=O)c1cccc([N+](=O)[O-])c1 | 10.4 | 291 nM [falling, partial curve] | 291 nM [falling, partial curve] |
| CCOc1ccc(N(CC(=O)NCc2ccc(OC)cc2)C(=O)CCC(=O)Nc2nccs2)cc1 | 94.3 | 58 nM [rising, full curve, poor fit] |  |
| O=C1C(c2ccncc2)N(CCC2=CCCCC2)C(=O)CN1C1CCCCC1 (stereo unspecified) | 15.1 |  | 25900 nM [rising, single point] |
| CCCC(=O)N(CCc1ccc(OC)cc1)Cc1nc2ccccc2c(=O)[nH]1 | 79.1 | 14600 nM [rising, partial curve] | 6510 nM [rising, single point] |
| Cc1ccccc1-c1nc(-c2ccc(NC(=O)c3ccc(Br)o3)cc2)no1 | -12.7 |  | 29100 nM [falling, single point] |
| Cc1ccc(C)c(NC(=O)CSc2nc(=O)n(CCN3CCOCC3)c3c2CCCC3)c1 | -4.29 |  | 731 nM [rising, single point] |
| CCOc1ccc(NC(=O)COC(=O)c2cc(=O)c3ccccc3o2)cc1 | 4.97 |  | 29100 nM [rising, single point] |
| CC(=O)O/N=C/c1c(NCc2ccccc2)nc2c(C)cccn2c1=O | 25.2 | 920 nM [rising, full curve] | 5.17 nM [rising, full curve, poor fit] |
| CCOC(=O)c1ccc(S(=O)(=O)N2CCNCC2)cc1 | -54.1 | 920 nM [falling, full curve] | 29100 nM [falling, single point] |
| COc1cccc2cc(-c3cc(=O)oc4ccc(OCC(C)=O)cc34)oc12 | -12.2 |  | 11600 nM [falling, partial curve] |
| CCOc1ccc(CN(C)C(=O)c2ccc(NS(=O)(=O)c3ccc4[nH]c(=O)[nH]c4c3)cc2)cc1 | -14.9 |  | 92 nM [falling, full curve, poor fit] |
| Cc1ccc(NC(=O)COc2ccccc2)cc1Cl | -14.9 |  | 29100 nM [falling, single point] |
| COc1ccc(-c2cc(C(F)(F)F)c(C#N)c(SCC(=O)Nc3ccccc3C#N)n2)cc1 | -10.7 |  | 920 nM [rising, full curve, poor fit] |
| Cc1cc(C)nc(NC2=NCCN2C(=O)NC2CCCCC2)n1 | 18.5 |  | 366 nM [rising, partial curve, poor fit] |
| CCOc1ccc(N(CC(=O)Nc2ccccc2)S(C)(=O)=O)cc1 | 4.12 | 517 nM [falling, full curve] |  |
| Cc1ccc(NC(=O)NN(C)c2c(Cl)c(Cl)nn2C)cc1 |  | 651 nM [rising, single point] |  |
| O=C(O)CCC(=O)N1CCN(c2nc(-c3ccccc3)c3cc(Br)ccc3n2)CC1 | 19.9 |  | 6510 nM [rising, single point] |
| CCn1c(SCC(=O)Nc2c(C)n(C)n(-c3ccccc3)c2=O)nnc1-c1cccc(C)c1 | 3.5 |  | 4.61 nM [rising, full curve, poor fit] |

| Structure (SMILES) | cell number change [%] | AC50 [1] | AC50 [2] |
| --- | --- | --- | --- |
| CC1(C)CC(=O)C2=C(C1)NC(SCC(N)=O)=C(C#N)C21CCCCC1 | 36.3 | 29100 nM [rising, single point] |  |
| O=C(COC(=O)c1ccccc1NC(=O)c1ccco1)Nc1ncc(Cl)cc1Cl |  | 1460 nM [rising, partial curve] | 580 nM [rising, partial curve, poor fit] |
| Cc1ccc(CNC(=O)COC(=O)CCC(=O)c2cccs2)cc1 | 3.96 |  |  |
| CCOC(=O)c1sc(C)c2c1NC(C)(c1cccs1)NC2=O (stereo unspecified) | 60.6 | 2060 nM [rising, full curve] | 3660 nM [rising, full curve] |
| O=C1CSC(c2ccccc2[N+](=O)[O-])N1c1ccc(O)cc1 (stereo unspecified) | -10.9 |  | 731 nM [falling, full curve, poor fit] |
| Cc1ccc(CNC(=O)CSCC(=O)O)cc1 | 11.5 |  | 29100 nM [falling, single point] |
| Cc1ccc(N2C(=O)C3C4C=CC(CNC(=S)N5CCN(c6ccccn6)CC5)(O4)C3C2=O)cc1 (stereo unspecified) | 0.753 |  | 4610 nM [rising, partial curve, poor fit] |
| CCn1nc(NS(=O)(=O)c2ccc(NC(C)=O)cc2)c2cc3cccc(C)c3nc21 | -24.5 |  |  |
| CN1C(=O)CSc2ccc(NC(=O)N3CCOCC3)cc21 | -2.72 | 231 nM [falling, full curve, poor fit] | 14600 nM [rising, single point] |
| CC1CCCN(S(=O)(=O)c2ccc(C(=O)Nc3nnc(-c4ccccc4Cl)o3)cc2)C1 (stereo unspecified) |  |  | 16400 nM [rising, single point] |
| CCCCOc1ccc(C(=O)NCc2ccccn2)cc1 |  |  | 731 nM [falling, full curve] |
| O=C(CN1C(=O)S/C(=C/c2cccs2)C1=O)N1CCCC1 | 1.55 |  |  |
| Cc1oc(S(=O)(=O)N(C)C)cc1C(=O)Nc1ccc(F)cc1 | -44 | 20600 nM [falling, single point] | 29100 nM [falling, single point] |
| Cc1cc(C(C)(C)C)ccc1OCCOCCN1CCCC1 | -7.77 |  | 20600 nM [falling, partial curve] |
| CNC(=S)NCCc1ccc(OC)cc1 | 14 | 6510 nM [rising, single point] |  |
| O=C(N/N=C/c1ccc(C(=O)O)cc1)C(=O)N1CCCCCC1 | 16.1 |  |  |
| COc1ccc(CSc2nnnn2C)cc1[N+](=O)[O-] | 17.9 |  |  |
| COc1ccc(OCCOC(=O)c2cccs2)cc1 | -32.3 |  | 326 nM [falling, full curve] |
| CCSc1cc(N2CCCC2)nc(-c2ccc(Cl)cc2)n1 | -32.1 | 3660 nM [falling, single point] |  |

Some of the entries so far, as tab-separated lines.
Structure (SMILES)	cell number change [%]	AC50 [1]	AC50 [2]
CN1C(=O)CSc2ccc(NC(=O)N3CCOCC3)cc21	-2.72	231 nM [falling, full curve, poor fit]	14600 nM [rising, single point]
CC1CCCN(S(=O)(=O)c2ccc(C(=O)Nc3nnc(-c4ccccc4Cl)o3)cc2)C1 (stereo unspecified)			16400 nM [rising, single point]
CCCCOc1ccc(C(=O)NCc2ccccn2)cc1			731 nM [falling, full curve]
O=C(CN1C(=O)S/C(=C/c2cccs2)C1=O)N1CCCC1	1.55		
Cc1oc(S(=O)(=O)N(C)C)cc1C(=O)Nc1ccc(F)cc1	-44	20600 nM [falling, single point]	29100 nM [falling, single point]
Cc1cc(C(C)(C)C)ccc1OCCOCCN1CCCC1	-7.77		20600 nM [falling, partial curve]
CNC(=S)NCCc1ccc(OC)cc1	14	6510 nM [rising, single point]	
O=C(N/N=C/c1ccc(C(=O)O)cc1)C(=O)N1CCCCCC1	16.1		
COc1ccc(CSc2nnnn2C)cc1[N+](=O)[O-]	17.9		
